Measurements published in paper PMC8948201.
Results are given in words; binding and its absence hold for the method and conditions named. Binding seen in cells or lysates may run through a third protein. Some entries that bind do so weakly or less than the wild type.

Chains of the proteins cited; added tags and fusions are not shown.
UniProt Q9Y6Y1: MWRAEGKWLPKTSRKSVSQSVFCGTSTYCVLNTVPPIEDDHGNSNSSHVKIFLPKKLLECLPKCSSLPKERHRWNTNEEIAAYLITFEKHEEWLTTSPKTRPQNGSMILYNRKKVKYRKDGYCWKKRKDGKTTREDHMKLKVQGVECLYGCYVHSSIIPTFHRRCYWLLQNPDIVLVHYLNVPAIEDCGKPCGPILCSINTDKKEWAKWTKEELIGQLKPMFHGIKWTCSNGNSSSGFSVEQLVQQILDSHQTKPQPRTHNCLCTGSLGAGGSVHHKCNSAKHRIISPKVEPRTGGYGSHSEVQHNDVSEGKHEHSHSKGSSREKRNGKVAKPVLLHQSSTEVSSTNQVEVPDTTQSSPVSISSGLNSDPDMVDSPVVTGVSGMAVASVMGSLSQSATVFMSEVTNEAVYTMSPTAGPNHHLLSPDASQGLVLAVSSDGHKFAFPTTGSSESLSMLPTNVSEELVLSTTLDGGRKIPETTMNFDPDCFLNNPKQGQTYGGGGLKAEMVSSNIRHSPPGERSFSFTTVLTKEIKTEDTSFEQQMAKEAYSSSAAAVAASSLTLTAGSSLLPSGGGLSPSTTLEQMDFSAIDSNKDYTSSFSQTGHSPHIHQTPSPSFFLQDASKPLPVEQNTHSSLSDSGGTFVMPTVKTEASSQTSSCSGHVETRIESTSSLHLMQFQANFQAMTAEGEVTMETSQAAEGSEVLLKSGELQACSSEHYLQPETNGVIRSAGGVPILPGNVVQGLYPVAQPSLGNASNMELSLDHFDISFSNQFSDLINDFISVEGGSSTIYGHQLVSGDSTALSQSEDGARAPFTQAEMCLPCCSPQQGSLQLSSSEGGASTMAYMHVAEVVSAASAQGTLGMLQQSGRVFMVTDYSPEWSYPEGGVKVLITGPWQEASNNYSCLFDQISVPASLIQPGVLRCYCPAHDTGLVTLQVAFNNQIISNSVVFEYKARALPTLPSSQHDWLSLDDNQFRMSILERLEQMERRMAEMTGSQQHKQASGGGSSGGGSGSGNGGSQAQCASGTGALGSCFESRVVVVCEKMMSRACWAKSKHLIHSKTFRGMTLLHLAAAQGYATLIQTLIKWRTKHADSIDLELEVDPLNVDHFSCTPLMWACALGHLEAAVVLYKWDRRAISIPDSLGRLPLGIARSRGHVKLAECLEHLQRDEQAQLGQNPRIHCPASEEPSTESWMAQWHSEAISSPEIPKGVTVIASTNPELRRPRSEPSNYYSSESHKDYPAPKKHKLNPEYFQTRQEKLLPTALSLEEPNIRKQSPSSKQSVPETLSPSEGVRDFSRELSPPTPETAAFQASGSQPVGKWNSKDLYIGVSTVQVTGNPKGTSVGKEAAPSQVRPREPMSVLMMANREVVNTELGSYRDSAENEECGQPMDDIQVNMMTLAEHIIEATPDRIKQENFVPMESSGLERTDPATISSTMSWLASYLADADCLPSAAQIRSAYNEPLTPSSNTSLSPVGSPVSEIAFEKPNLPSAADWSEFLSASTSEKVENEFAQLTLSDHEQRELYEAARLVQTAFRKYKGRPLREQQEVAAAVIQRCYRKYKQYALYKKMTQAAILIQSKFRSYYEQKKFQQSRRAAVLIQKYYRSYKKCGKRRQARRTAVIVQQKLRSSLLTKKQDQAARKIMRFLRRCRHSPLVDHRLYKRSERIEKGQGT

Target: Calmodulin-binding transcription activator 1 (CAMTA1) (human (endogenous in SW480 and SW620)) (UniProt Q9Y6Y1)
Assay: co-IP; SW480 and SW620 cells lysed in RIPA buffer (50 mM Tris-HCl, 150 mM NaCl, 1% Nonidet-40, 0.5% sodium deoxycholate, 1 mM EDTA, 0.1% SDS, pH 7.4); 1 mg protein with 3 ug anti-CAMTA1, anti-NFATc4 or anti-PPP3CA IgG overnight at 4 °C; protein A agarose beads 2 h at 4 °C; western blot

binding: binds
B1: Nuclear factor of activated T cells, cytoplasmic 4 (NFATc4) (protein, UniProt Q14934-11 1-857)
chain: MITTLPSLLPASLASISHRVTNLPSNSLSHNPGLSKPDFPGNSSPGLPSSSSPGRDLGAPAGSMGAASCEDEELEFKLVFGEEKEAPPLGAGGLGEELDSEDAPPCCRLALGEPPPYGAAPIGIPRPPPPRPGMHSPPPRPAPSPGTWESQPARSVRLGGPGGGAGGAGGGRVLECPSIRITSISPTPEPPAALEDNPDAWGDGSPRDYPPPEGFGGYREAGGQGGGAFFSPSPGSSSLSSWSFFSDASDEAALYAACDEVESELNEAASRFGLGSPLPSPRASPRPWTPEDPWSLYGPSPGGRGPEDSWLLLSAPGPTPASPRPASPCGKRRYSSSGTPSSASPALSRRGSLGEEGSEPPPPPPLPLARDPGSPGPFDYVGAPPAESIPQKTRRTSSEQAVALPRSEEPASCNGKLPLGAEESVAPPGGSRKEVAGMDYLAVPSPLAWSKARIGGHSPIFRTSALPPLDWPLPSQYEQLELRIEVQPRAHHRAHYETEGSRGAVKAAPGGHPVVKLLGYSEKPLTLQMFIGTADERNLRPHAFYQVHRITGKMVATASYEAVVSGTKVLEMTLLPENNMAANIDCAGILKLRNSDIELRKGETDIGRKNTRVRLVFRVHVPQGGGKVVSVQAASVPIECSQRSAQELPQVEAYSPSACSVRGGEELVLTGSNFLPDSKVVFIERGPDGKLQWEEEATVNRLQSNEVTLTLTVPEYSNKRVSRPVQVYFYVSNGRRKRSPTQSFRFLPVICKEEPLPDSSLRGFPSASATPFGTDMDFSPPRPPYPSYPHEDPACETPYLSEGFGYGMPPLYPQTGPPPSYRPGLRMFPETRGTTVSEIIGRDLSGFPAPPGEEPPA
